Experimental data as given in PMC9440430, “An intrinsically disordered transcription activation domain increases the DNA binding affinity and reduces the specificity of NFκB p50/RelA”.

Key:
[1] = tested on: p50/RelA-FL: p50 subunit (39-350) + RelA-FL (RHD + TAD); assay: fluorescence anisotropy; conditions: 5' 5AmMC6 amino linker; SEC buffer 25 mM Tris pH 7.5, 150 mM NaCl, 0.5 mM EDTA, 1 mM DTT (FA buffer not stated explicitly; 5 nM DNA, RT incubation, read at 25 C); recombinant protein; protein details: N-terminal His6,none; label: 5' fluorescein (FITC); folded or branched DNA
[2] = tested on: p50/RelA-FL: p50 subunit (39-350) + RelA-RHD (no TAD); assay: fluorescence anisotropy; conditions: 5' 5AmMC6 amino linker; SEC buffer 25 mM Tris pH 7.5, 150 mM NaCl, 0.5 mM EDTA, 1 mM DTT (FA buffer not stated explicitly; 5 nM DNA, RT incubation, read at 25 C); recombinant protein; protein details: N-terminal His6,none; label: 5' fluorescein (FITC); folded or branched DNA

**Q.** Does “GGGAAATTCCTCCCCCAGGAATTTCCC [IFN-beta hairpin]” bind [1]?
**A.** binds

**Q.** Does “GGGAAATTCCTCCCCCAGGAATTTCCC [IFN-beta hairpin]” bind [2]?
**A.** binds

**Q.** Does “GGGACTTTCCTCCCCCAGGAAAGTCCC [HIV-LTR hairpin]” bind [1]?
**A.** binds

**Q.** Does “GGGACTTTCCTCCCCCAGGAAAGTCCC [HIV-LTR hairpin]” bind [2]?
**A.** binds

**Q.** For “AGAGAAATCCCTCCCCCAGGGATTTCTCT [NFKBIA site 2 hairpin]”, which Kd [1] is on record?
**A.** 6 nM

**Q.** And the Kd [2]?
**A.** 21 nM

**Q.** What does the source list for “GGGAGTTTCCTCCCCCAGGAAACTCCC [RANTES hairpin]”?
**A.** binding result [1]: binds; binding result [2]: binds

**Q.** Which results are given for “TGGAAATTCCCTCCCCCAGGGAATTTCCA [NFKBIA site 1 hairpin]”?
**A.** binding result [1]: binds; binding result [2]: binds

Construct, isoform or probe ends are uncertain for at least one entry. At least one verdict rests on a figure or table, not on a statement of the authors.
